Measured values as given in PubChem BioAssay AID493014 (National Center for Advancing Translational Sciences (NCATS), 2011).
The list shows a part of the results. The main result of the screen is listed elsewhere. These columns were measured beside it and carry no call. Compounds called inactive in the main read-out are mostly missing here. The note in brackets gives the kind of curve behind each potency; many fits are weak.

Test: qHTS Assay to Find Inhibitors of Chronic Active B-Cell Receptor Signaling
Settings: ABC-DLBCL IkBa-CBG/CBR reporter, luminescence ratio (green luciferase fused to IkBa over red control in TMD8 lymphoma cells), 4 h
How it was run: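 Concentration-response series (up to 46 uM) were applied to TMD8 dual-reporter cells for 4 h at 37C with doxycycline. Green/red ratio, after filter-overlap correction, defined %Activity; red signal alone was normalised to basal cells and zero luminescence.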

[1] = measured here: CBR red luminescence, cell number
[2] = measured here: IkBa-CBG green luminescence

| Structure (SMILES) | AC50 [1] | AC50 [2] |
| --- | --- | --- |
| CCN(CC)C(=O)Cn1cc(/C=C2\C(=O)NC(=O)N(c3ccccc3F)C2=O)c2ccccc21 | 35.5 µM [falling, single point] | – |
| CCn1nc(-c2cccs2)nc2c(=O)n(C)c(=O)nc1-2 | 7.08 µM [falling, full curve, poor fit] | – |
| CCCCn1c(=O)c(C=Nc2ccc(Cl)cc2)c(O)n(Cc2ccco2)c1=O | 9.2 µM [falling, partial curve, poor fit] | – |
| O=C(Nc1ccon1)c1cccn(Cc2ccccc2)c1=O | 1.78 µM [falling, full curve] | – |
| O=C1NC(=O)N(CC2CCCO2)C(=O)/C1=C/c1cccs1 (stereo not drawn) | 20 µM [rising, single point] | – |
| CCOc1cc(CNCCc2c[nH]c3ccccc23)cc(Cl)c1OCC | 29.1 µM [falling, single point] | – |
| CCCCn1c(NS(=O)(=O)c2ccccc2)c(C(=O)OCC)c2nc3ccccc3nc21 | 6.51 µM [rising, single point] | 3.66 µM [falling, full curve, poor fit] |
| C[C@]12CCC(=O)C(O)=C1CC[C@@H]1[C@@H]2CC[C@]2(C)C(=O)CC[C@@H]12 | 11.6 µM [rising, partial curve] | – |
| COc1ccc(NC(=O)CSc2nnc(C)c3ccccc23)cc1 | 35.5 µM [falling, single point] | – |
| COC(=O)c1c(C)oc2ccc(OC(=O)N3CCOCC3)cc12 | 6.31 µM [falling, partial curve, poor fit] | – |
| O=c1c2ccccc2nc(/C=C/c2ccc(O)cc2)n1-c1cccc(O)c1 | 10 µM [falling, partial curve] | – |
| COc1ccc(/C=C/c2nc3ccccc3c(=O)n2-c2ccc(C)cc2)cc1O | 35.5 µM [falling, single point] | – |
| COC1C(OC(=O)c2ccc(C)[nH]2)C(O)C(Oc2ccc3c(O)c(NC(=O)c4ccc(O)c(CC=C(C)C)c4)c(=O)oc3c2Cl)OC1(C)C (stereo not drawn) | 35.5 µM [falling, single point] | 35.5 µM [rising, partial curve, poor fit] |
| O=C(N/N=C/c1c(O)n(Cc2ccc(F)cc2)c(=O)[nH]c1=O)c1ccccc1 | 2.82 µM [falling, full curve] | – |
| O=C(CN1C2CCCC1CC(NC(=O)c1ccccc1)C2)Nc1ccccc1C(F)(F)F (stereo not drawn) | 25.1 µM [falling, single point] | – |
| C[C@@H]1OC(Nc2ccc(N=Nc3ccccc3)cc2)[C@H](O)[C@H](O)[C@H]1O (stereo partly drawn) | 7.94 µM [falling, partial curve] | – |

Complete entries, quoted from the list. Values in the order: AC50 [1] | AC50 [2]
COC1C(OC(=O)c2ccc(C)[nH]2)C(O)C(Oc2ccc3c(O)c(NC(=O)c4ccc(O)c(CC=C(C)C)c4)c(=O)oc3c2Cl)OC1(C)C (stereo not drawn) reads 35.5 µM [falling, single point] | 35.5 µM [rising, partial curve, poor fit]
COC(=O)c1c(C)oc2ccc(OC(=O)N3CCOCC3)cc12 reads 6.31 µM [falling, partial curve, poor fit] | –
